No constants are given. Whether binding was seen depends on the method and setting. Binding seen in cells or lysates may run through a third protein. Binding can be weak; no strength is given.
Molecular target: T1, eukaryotic elongation factor 2 kinase (rat (endogenous in dorsal hippocampus)) (UniProt P70531)
T1 sequence: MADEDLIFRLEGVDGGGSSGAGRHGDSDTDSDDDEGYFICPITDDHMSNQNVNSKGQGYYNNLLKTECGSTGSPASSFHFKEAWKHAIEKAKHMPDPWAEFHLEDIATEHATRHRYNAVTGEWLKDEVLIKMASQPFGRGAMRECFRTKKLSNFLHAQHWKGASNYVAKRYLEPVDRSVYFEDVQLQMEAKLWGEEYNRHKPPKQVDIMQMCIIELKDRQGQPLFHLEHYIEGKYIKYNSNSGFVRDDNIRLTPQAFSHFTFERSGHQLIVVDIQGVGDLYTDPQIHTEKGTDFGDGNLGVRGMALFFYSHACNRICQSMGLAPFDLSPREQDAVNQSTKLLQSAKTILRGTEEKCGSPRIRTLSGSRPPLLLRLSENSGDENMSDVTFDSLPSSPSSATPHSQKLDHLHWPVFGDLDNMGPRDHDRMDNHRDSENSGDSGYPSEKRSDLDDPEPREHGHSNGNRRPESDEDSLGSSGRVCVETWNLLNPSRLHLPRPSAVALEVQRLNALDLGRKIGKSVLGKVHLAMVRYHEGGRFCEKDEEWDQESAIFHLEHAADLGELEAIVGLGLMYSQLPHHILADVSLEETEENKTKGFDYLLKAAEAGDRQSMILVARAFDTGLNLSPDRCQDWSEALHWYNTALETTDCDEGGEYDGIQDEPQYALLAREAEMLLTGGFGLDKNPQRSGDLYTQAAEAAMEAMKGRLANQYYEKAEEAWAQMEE
Assay: co-IP; dorsal hippocampus lysate (500 ug protein) of aged rats, untreated or co-treated with Cf-hGP and L. plantarum for 4 weeks; IP lysis buffer 25 mM Tris-HCl pH 7.4, 150 mM NaCl, 1% NP-40, EDTA, 5% glycerol; eEF2K antibody 1:50 overnight at 4 C, Protein A/G magnetic beads; blot probed for p-JNK and p-eEF2K

- binding: binds
Substance: c-Jun N-terminal kinase (rat (endogenous in dorsal hippocampus)) (enzyme)

Reference: article PMC7146536
